# Results of single-concentration screens

Data taken from ChEMBL document CHEMBL3988442, “University of Dundee, Small-Polar-MMV Screening Library” (2021).

Values are the deposited “Percent Effect”, in %.
The record does not define 0% and 100%; most values in the screen are far below 50% and negative numbers occur (in some assays of this library far below -100).
This is an unselected part of the compounds tested.
Two or more numbers in one place are separate tests of the same structure; such repeats can differ widely.

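Cell assay of Leishmania donovani living inside macrophages; the read-out is not stated. Tested at 30 µM. Direction is inferred from retests: higher values go with stronger inhibition. About 69,000 compounds were tested under these conditions; 1.5% (about 1,000) showed 50% or more at least once.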

Cc1csc(C2(NCc3nc(-c4ccco4)oc3C)CCCC2)n1 read 6.669%. CCn1ccc(C(=O)N2CCOC(c3nc(-c4cccs4)no3)C2)n1 (configuration not stated) gave 7.112% and 3.864%. With COc1cccc(CC(=O)N2CCc3ncnc(NCCO)c3CC2)c1 the screen gave 28.65%. O=C(O)C(F)(F)F.O=C(O)C(F)(F)F.[H][C@@]12CCN(Cc3cccc(C)n3)[C@@]1([H])CCN2Cc1cccs1 gave 26.66%. Result for Cc1ccc(CN(Cc2[nH]cnc2C)C2CC(C)(C)NC(C)(C)C2)o1.O=C(O)CC(O)(CC(=O)O)C(=O)O was 4.738% and 0.6408%. [H][C@@]12C[C@H](C(=O)NCc3ccco3)CN(C(=O)N(C)C)[C@]1([H])CCO2 gave 1.617%. Result for CC1c2ncc(Cn3cncn3)n2CCN1CC1CCOCC1.O=C(O)C(F)(F)F (configuration not stated) was 2.835%. Result for CN(C)C(=O)CN1CCC2(CCN(Cc3nccs3)CC2)C1=O.O=C(O)C(F)(F)F was -25.86%.

Result for CC(NCc1cccc2c1OCCO2)c1cc2c(cc1Br)OCCO2 (configuration not stated) was 73.82%. O=C(c1ccc(N2CCCC2)nn1)N1CCCC(n2cccn2)C1 (configuration not stated) gave -5.165%. Result for O=C1CCC2(CCN(Cc3cc(F)ccc3Cl)CC2)CN1C1CCCC1 was 11.77%. COc1ccc(NC(=O)N(C)Cc2ccc(Br)o2)cn1 read 14.48%. Cc1nocc1C(=O)N1CCc2c(CN(C)C(C)C)n[nH]c2C1 gave 29.91%. CN1CCOCC12CCN(C(=O)C1CCC1)CC2.O=C(O)C(F)(F)F read 29.87%. Result for O=C(c1cccnc1O)N1CCOC(c2ccc(Cl)cc2)C1 (configuration not stated) was 13.86%. With CC(C)[C@@H]1CN(c2ccc(F)cn2)C[C@H]1NS(C)(=O)=O the screen gave 24.68%.

For CN1CCN(CCCNS(=O)(=O)Cc2ccccc2F)CC1 the result was 10.7%. CN(Cc1ccncn1)C(=O)CCc1[nH]nc2c1CCCC2 read 25.61%. Cn1cnnc1C1CCCN(C(=O)NCCOc2ccccc2)C1 (configuration not stated) read 2.584%. c1ccc(CSc2nnc(C3CC3)s2)nc1 gave 16.59%. Cc1nc(C2CCCNC2)cc(N2CCc3nc(N)sc3C2)n1 (configuration not stated) gave 13.62%. With Cc1ncc(CNC2CCc3nc(C(C)C)nn3C2)s1 (configuration not stated) the screen gave 5.34%. O=C(O)C(F)(F)F.[H][C@@]12CCN(c3ncccn3)C[C@]1([H])[C@H](C(=O)NC(C)C)CCO2 read -0.1994%. With O=C(O)C(F)(F)F.O=C(O)C(F)(F)F.[H][C@@]12CCCO[C@]1([H])[C@H](N1CCCC1)CN(C(=O)c1ccc(C)nc1)C2 the screen gave 1.775% and 2.68%.

Cc1nnc2n1CCN(Cc1nc(-c3ccoc3)no1)C2 read 0.8383%. Result for Cc1ncsc1C(=O)Nc1cccc(OCC(F)F)n1 was 15.35%. Result for CN(C)C(=O)c1ccc(C2CCCN2C(=O)CCC2=NNC(=O)CC2)s1 (configuration not stated) was 7.905%. With O=C(NCCCO)C1CC(=O)N(c2n[nH]c3cccc(F)c23)C1 (configuration not stated) the screen gave 10.16%. Result for COC(=O)c1ccc(NC(=O)[C@@H]2CCCN2C(=O)c2ccco2)s1 was -6.724%. CS(=O)(=O)N[C@@H]1CN(Cc2ccc3ncccc3c2)C[C@H]1O gave 30.82%. With O=C(O)C(F)(F)F.[H][C@@]12OCCN(S(=O)(=O)CC)[C@@]1([H])CC[C@H]2Oc1ncccc1F the screen gave 9.061%. With Cc1nn(-c2ccccc2)cc1C(=O)N1CCCC(n2ccnc2)C1 (configuration not stated) the screen gave 39.13%.

With COc1ccc(-c2nc(C3(NC(=O)OC(C)(C)C)CCC3)no2)cn1 the screen gave -2.741%. For Cc1csc2c(N3CCC(Cn4cc(C(C)(C)O)nn4)CC3)ncnc12 the result was 39.08%. CCn1c(C)cc(C(=O)N2CCC(Nc3cccnn3)CC2)c1C gave -11.76%. For O=C(N[C@H]1CC[C@H](O)CC1)c1ccc2nc(-c3ccc(F)cc3)cn2c1 the result was 2.15%. For CN(CCS(=O)(=O)c1cc(Cl)ccc1Cl)CC(N)=O the result was 18.46%. For CS(=O)(=O)N1CCC[C@H]1c1ncnn1-c1ccc2c(c1)OCO2 the result was -61.62%. Result for CS(=O)(=O)c1cccc(C(=O)N2CCCC(n3cccn3)C2)c1 (configuration not stated) was 15.19%. Result for CCOc1cc(CN(C)CCOC)ccc1OC(F)F was 21.3%.

Result for Cc1nc(CN2CCC(N(C)Cc3noc(C(C)C)n3)C2)cs1 (configuration not stated) was 12.71%. CC(C)NS(=O)(=O)c1cc(C(=O)O)cc(-c2ccc3c(c2)OCCO3)c1 read 34.55%. Cn1cc(-c2nnn3c2COC(CNC(=O)c2cccs2)C3)cn1 (configuration not stated) read 37.28%. CC(=O)N(Cc1noc(C)n1)C1CCN(Cc2ccon2)C1 (configuration not stated) gave -19.32%. With Cc1nc(CC(=O)N2CCn3c(nnc3C(C)C)C2)cs1 the screen gave 14.18%. CC(=O)NCC(=O)N1CCc2c(CN(C)C)nn(C(C)C)c2C1 read -7.892%. With Cc1cnc2n(c1=O)C(CC(=O)NCc1cccnc1)CS2 (configuration not stated) the screen gave 37.36%. For COCCC1COC2(CCN(C(C)=O)CC2)C1 (configuration not stated) the result was 14.09%.

For Cc1cc(CN2CCC(C3CCN(CCc4ccccc4)CC3)C2)[nH]n1 (configuration not stated) the result was 13.31%. Result for O=C(NCc1nnc2n1CCCCC2)N(CC1CCOC1)C1CC1 (configuration not stated) was -17.86%. For Cc1ccc(C)c2c1NC(=O)C2CC(=O)O (configuration not stated) the result was 11.16%. CC[C@@H](c1ccccc1)n1c(C2CC2)n[nH]c1=O gave 31.69%. For Cc1cc(C)n(C2CCCN(C(=O)CCCc3ccccn3)C2)n1 (configuration not stated) the result was 20.46%. CC(C)c1nccn1-c1cccc(C2CCCN2S(=O)(=O)N(C)C)n1 (configuration not stated) read 21.27%. O=C(NC1CCCCC1)N1CCCC1c1nnc2n1CCNC2 (configuration not stated) gave -4.495%. Result for N#Cc1cc(N2CCC(CS(N)(=O)=O)CC2)nc2ccccc12 was 23.06%.

For CCn1ncc2c1CCCC2NCc1cc(Cl)c(OC)c(OC)c1 (configuration not stated) the result was 15.36%.

Once more, the final 4:

| compound | effect |
|---|---|
| `CC(C)c1nccn1-c1cccc(C2CCCN2S(=O)(=O)N(C)C)n1` (configuration not stated) | 21.27 |
| `O=C(NC1CCCCC1)N1CCCC1c1nnc2n1CCNC2` (configuration not stated) | -4.495 |
| `N#Cc1cc(N2CCC(CS(N)(=O)=O)CC2)nc2ccccc12` | 23.06 |
| `CCn1ncc2c1CCCC2NCc1cc(Cl)c(OC)c(OC)c1` (configuration not stated) | 15.36 |